# “And” between values parts separate entries of the source, which are not always exact repeats. Equal values may be shown once. The whole screen tested about 300,000 compounds, of which about 5,400 (1.8%) were called active. The inconclusive results got no clear call from the source; some entries with a clear call stand among them for comparison. Calls follow the shape of the full dose curve; tested in HEK293 cells. Potencies beside an inconclusive call are fits to weak or partial responses and may not hold up.
# Test: qHTS for inhibitors of binding or entry into cells for Marburg Virus
# Conditions: Marburg virus pseudotyped entry inhibition, cell reporter; series mostly up to 37.8 µM
# Potency is read from the fitted curve at half-maximal effect.
row,SMILES,Potency
1,COc1ccc(-c2c[n+]3c(n2-c2c(C)n(C)n(-c4ccccc4)c2=O)CCCCC3)cc1,"inconclusive: 5.01 µM [inhibitor, single point]"
2,CCOC(=O)N1CCC(NC(=O)c2cc(COc3ccc(F)cc3Cl)on2)CC1,inactive
3,O=C(NCCNc1ccc([N+](=O)[O-])cc1C(F)(F)F)c1ccccc1F,"inconclusive: 4.47 µM [inhibitor, full curve, poor fit]"
4,CCn1c(=O)c(-c2cc(=O)[nH][nH]2)c(O)c2ccccc21,"inconclusive: 0.0146 µM [inhibitor, full curve, poor fit]"
5,COc1ccc(-c2noc(CCC(=O)NC3CCCC3)n2)cc1,inactive
6,COc1ccc(NC(=O)CN2CCC(NC(=O)C3CCCCC3)CC2)cc1,"inconclusive: 29.1 µM [activator, partial curve, poor fit]"
7,CCCCCCC(C)(C)c1ccc([C@@H]2C[C@H](O)CC[C@H]2CCCO)c(O)c1,active: 11.2 µM and active: 13 µM
8,Cn1c(CNC(=O)c2ccco2)nnc1SCC(=O)N1CCN(c2ccccc2F)CC1,inactive
9,CCCc1cc(C(=O)Nc2ccc(F)c(Cl)c2)no1,"inconclusive: 11.2 µM [activator, partial curve, poor fit]"
10,CCc1cc(C(N)=O)c(NC(=O)c2ccc(OC)cc2)s1,"inconclusive: 22.4 µM [inhibitor, single point]"
11,O=C(CCSc1nnc2ccccn12)Nc1ccc2c(c1)OCO2,inactive
12,CCOc1ccccc1C(=O)Nc1cc(-c2ccc(C)cc2)no1,"inconclusive: 3.16 µM [activator, single point]"
13,COc1ccc(Cl)cc1NC(=O)CN(C)C(=O)c1cc(-c2cccs2)nn1-c1ccccc1,"inconclusive: 25.1 µM [inhibitor, single point]"
14,COCc1cc(C)nc(OCC(=O)N/N=C/c2cc(C)n(-c3c(C)cccc3C)c2C)c1C#N,"inconclusive: 22.4 µM [inhibitor, single point]"
15,CCC(CO)NCc1ccc(OCC(=O)Nc2cccc(C(F)(F)F)c2)c(OC)c1 (stereo not drawn),"inconclusive: 18.4 µM [inhibitor, partial curve, poor fit]"
16,O=C(c1ccc(N2C(=O)C3CCCCC3C2=O)cc1)N1CCCCC1 (stereo not drawn),"inconclusive: 0.82 µM [inhibitor, partial curve]"
17,COc1cccc(C(=O)O/N=C(\N)c2ccncc2)c1OC,"inconclusive: 16.4 µM [activator, single point]"
18,Cc1cc(C)c(C(=O)COC(=O)c2cccc(S(=O)(=O)NCc3ccccc3)c2)cc1C,"inconclusive: 1.26 µM [activator, single point]"
19,CCOC(=O)CSc1nnc(-c2ccoc2C)n1-c1ccc(OCC)cc1,"inconclusive: 6.31 µM [inhibitor, single point]"
20,CC1(C)OC(=O)C(=NNc2ccc(Br)cc2)C(=O)O1,inactive
21,Cc1ccccc1N(C(=O)c1cccs1)c1nc2ccccc2s1,"inconclusive: 14.1 µM [inhibitor, partial curve, poor fit]"
22,C=CCNC(=O)C1CCN(c2nc(C)cc(-c3ccccc3)n2)CC1,inactive
23,Cc1ccsc1/C=N/Nc1ncc(Cl)cc1Cl,inactive

row,SMILES,Potency
1,CC(C)(C)c1ccc(OCC(=O)NNC(=O)CCc2ccccc2)cc1,"inconclusive: 31.6 µM [activator, single point]"
2,C=CC1CN2CCC1CC2[C@@H](OC(=O)c1ccc(OC)cc1)c1ccnc2ccccc12 (stereo partly drawn),active: 11.2 µM
3,CN(C)CCN(C(=O)c1ccc2c(c1)OCCO2)c1nc2ccc(Cl)cc2s1,inactive
4,O=C(CNC(=S)NC(=O)c1ccc(F)cc1)c1ccccc1,inactive
5,N#C/C(C(=O)NCc1ccco1)=C1/SC=C(c2ccccc2)N1c1ccccc1,inactive
6,CC1=Nc2cc(C(=O)NCCc3ccc(Cl)cc3)ccc2Sc2c(C)ccc(C)c21,"inconclusive: 10 µM [inhibitor, partial curve, poor fit]"
7,Cn1c(=O)c2[nH]c(SCc3cccnc3)nc2n(C)c1=S,"inconclusive: 3.16 µM [inhibitor, single point]"
8,O=C(CCl)Nc1ccc2c(c1)OCO2,"inconclusive: 11.2 µM [inhibitor, partial curve, poor fit]"
9,Cc1nc2ccccn2c1C(=O)N/N=C/c1ccc([N+](=O)[O-])cc1,"inconclusive: 35.5 µM [activator, single point]"
10,CCOc1ccc(N(CC(=O)NC2CCCCC2)S(=O)(=O)c2ccc(C)cc2)cc1,inactive
11,Cc1ccc(C)c(NS(=O)(=O)c2cc(C(=O)NCCSC3CCCCC3)ccc2C)c1,inactive
12,CC(C)(C)C1CCC2(CC1)C(C#N)=C(SCC(=O)Nc1ccccc1)NC(=O)C2C#N (stereo not drawn),"inconclusive: 35.5 µM [inhibitor, single point]"
13,O=[N+]([O-])c1cc(S(=O)(=O)NCCCN2CCOCC2)ccc1Cl,"inconclusive: 1.46 µM [inhibitor, partial curve, poor fit]"
14,Cc1ccc(-c2ccc(/C=C/C(=O)c3ccccc3)o2)cc1,inactive
15,O=C(NC(=S)Nc1ncc(Br)cc1Br)c1cncc(Br)c1,inactive
16,COc1cc(C(=O)Nc2ccc3c(c2)C(=O)c2ccccc2C3=O)cc(OC)c1OC,"inconclusive: 35.5 µM [activator, single point]"
17,Cc1ccc(NC(=O)NNS(=O)(=O)c2ccc(Br)cc2)cc1,"inconclusive: 2.82 µM [activator, single point]"
18,O=C(CN(C(=O)CNC(=O)c1cccs1)c1ccc(F)cc1)NC1CCCC1,inactive
19,O=C(c1cccn2c(=O)c3cc(Cl)ccc3nc12)N1CCC2(CC1)OCCO2,inactive
20,O=C(CN1CCc2ccccc2C1)Nc1ccc(OC(F)(F)F)cc1,inactive
21,CSc1nc(-c2ccc(Cl)cc2Cl)[nH]c(=O)c1C#N,"inconclusive: 0.316 µM [activator, partial curve, poor fit]"
22,O=c1c2ccccc2nc(COc2ccccc2)n1/N=C/c1ccco1,inactive
23,O=C(COn1nnc2ccc(Cl)cc21)NCc1ccccc1,"inconclusive: 15.8 µM [activator, partial curve, poor fit]"

# Reformatted with tabs: 3 of the compounds above.
row	SMILES	Potency
11	Cc1ccc(C)c(NS(=O)(=O)c2cc(C(=O)NCCSC3CCCCC3)ccc2C)c1	inactive
12	CC(C)(C)C1CCC2(CC1)C(C#N)=C(SCC(=O)Nc1ccccc1)NC(=O)C2C#N (stereo not drawn)	inconclusive: 35.5 µM [inhibitor, single point]
13	O=[N+]([O-])c1cc(S(=O)(=O)NCCCN2CCOCC2)ccc1Cl	inconclusive: 1.46 µM [inhibitor, partial curve, poor fit]

# The listing continues:

row,SMILES,Potency
1,CCCCC(=O)Nc1ccccc1CC,inactive
2,Cc1cc(C)n(-c2nc(NCCCN(C)C)c3c4c(sc3n2)COC(C)(C)C4)n1,"inconclusive: 12.6 µM [inhibitor, partial curve, poor fit]"
3,CC1=C(C(=O)OC2CCCCCC2)C(c2cccc(Cl)c2)CC(=O)N1 (stereo not drawn),"inconclusive: 7.08 µM [inhibitor, partial curve, poor fit]"
4,O=C(Nc1cccc(Cl)c1)c1ccc(F)c(S(=O)(=O)N2CCN(c3ccccn3)CC2)c1,"inconclusive: 20.6 µM [inhibitor, single point] and inconclusive: 10 µM [inhibitor, single point]"
5,O=C(Nc1ccccn1)C1(c2cccs2)CCOCC1,"inconclusive: 0.116 µM [activator, single point]"
6,CCn1c(C)cc(/C=C2/NC(=O)N(Cc3ccccc3F)C2=O)c1C,"inconclusive: 35.5 µM [inhibitor, single point]"
7,CCN(C(=O)COc1cccnc1[N+](=O)[O-])C1CCS(=O)(=O)C1 (stereo not drawn),"inconclusive: 2.51 µM [inhibitor, partial curve, poor fit]"
8,O=S(=O)(c1cccc(C(F)(F)F)c1)N1CCC(c2cc(-c3cccc4ccccc34)n[nH]2)CC1,"inconclusive: 29.1 µM [inhibitor, single point]"
9,O=C(Nc1ccccc1C(=O)NCc1ccc(Cl)cc1)c1ccco1,"inconclusive: 35.5 µM [inhibitor, single point]"
10,CCOc1ccc2c(c1)n([O-])c1c([n+]2=O)CCCC1,"inconclusive: 1.26 µM [inhibitor, single point]"
11,CCc1ccc(-c2cc(C)no2)cc1S(=O)(=O)N1CCN(c2ccccc2F)CC1,"inconclusive: 11.2 µM [inhibitor, partial curve, poor fit]"
12,CCOC(=O)c1[nH]c2cc3c(cc2c1NC(=O)CN1CCc2ccccc2C1)OCO3,"inconclusive: 22.4 µM [inhibitor, single point]"
13,CN1CCc2nc3sc(C(=O)Nc4ccccc4C(F)(F)F)c(N)c3cc2C1,inactive
14,CCOc1ccc(CC(=O)NNC(=S)NC)cc1Br,"inconclusive: 0.562 µM [inhibitor, full curve, poor fit]"
15,COc1cc(S(=O)(=O)NCCN2CCOCC2)ccc1-n1cnnn1,"inconclusive: 12.6 µM [inhibitor, partial curve, poor fit]"
16,Cc1ccc(S(=O)(=O)N2C(=O)C(C)SC2=Nc2ccccc2)cc1 (stereo not drawn),"inconclusive: 35.5 µM [activator, single point]"
17,CC(=O)Nc1ccc(-n2c(C)ccc2-c2ccccc2)cc1,"inconclusive: 28.2 µM [inhibitor, single point]"
18,COc1ccc(C(=O)/C=C/Nc2cc(C)on2)c(OC)c1,inactive
19,O=C(O)C1CCCN1C(=O)C12CC3CC(CC(C3)C1)C2 (stereo not drawn),inactive
20,O=C1c2cccc3cccc(c23)C(=O)N1/N=C/c1ccc(O)cc1O,inactive
21,Cc1nc2cc(-c3ccccc3)sc2c(=O)n1N,"inconclusive: 1.26 µM [inhibitor, full curve, poor fit]"
22,O=C1C(F)=CC(COC(c2ccccc2)(c2ccccc2)c2ccccc2)OC1n1cc(F)c(=O)[nH]c1=O (stereo not drawn),"inconclusive: 6.31 µM [inhibitor, partial curve]"

# Reference: PubChem BioAssay AID540276 (National Center for Advancing Translational Sciences (NCATS), 2011)
